Results deposited as PubChem BioAssay AID652259 (Drosophila RNAi Screening Center, 2013).
Aim: 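Genome-wide hunt for genes that control Wingless pathway activity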 (primary screen). Cell system: Drosophila clone 8 imaginal disc epithelial cells. Knock-down reagent: long dsRNA against Drosophila genes. Treatment: pathway stimulated by co-transfected Wingless expression plasmid. Measurement: 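Firefly luciferase from a tcf-site Wingless reporter, measured alongside co-transfected Renilla luciferase that tracks transfection; pathway stimulated by a Wingless plasmid; the firefly-to-Renilla ratio is not deposited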. Direction: firefly reporter light: higher = more Wg reporter light, before normalisation; Renilla control light: higher = more transfected or surviving cells. Rule for the call: 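a knock-down is a candidate when at least two out of four statistical tests show it departing from its plate mean; one test alone signals a weak candidate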. Meaning of the calls: active = candidate regulator (raises or lowers reporter); inactive = not a candidate.
The deposit covers about 22,000 reagents; below is a random part of those that have a named target and a result. In the full data, 233 (1.1%) got an active call. 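Light values are raw, unnormalised plate reads; the ratio scores behind the reporter calls were not deposited.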 Entries without a mark were called inactive. The record does not give: the amount of reagent, the time to read-out, the dose of the treatment.

target gene | DRSC id | firefly reporter light, replicate 1 | firefly reporter light, replicate 2 | Renilla control light, replicate 1 | Renilla control light, replicate 2
da (GeneID 34413) | DRSC03517 | 2752 | 6884 | 1372 | 3044
His3.3B (GeneID 31848) | DRSC17773 | 23308 | – | 16864 | –
His3.3B (GeneID 31848) | DRSC18673 | 17792 | – | 6160 | –
prod (GeneID 37187) | DRSC07667 | 12497 | – | 3744 | –
CG15605 (GeneID 36933) | DRSC06558 | 6235 | – | 2455 | –
CG14326 (GeneID 42120) | DRSC14805 | 18369 | – | 4550 | –
CG43373 (GeneID 39835) | DRSC09869 | 6891 | – | 3804 | –
CG43373 (GeneID 39835) | DRSC09885 | 8516 | – | 3767 | –
CG11961 (GeneID 37221) | DRSC06099 | 16103 | – | 4897 | –
Usp30 (GeneID 31519) | DRSC18265 | 27840 | – | 8746 | –
Grip128 (GeneID 32478) | DRSC20167 | 2864 | 7320 | 1012 | 2544
CG4949 (GeneID 32691) | DRSC19926 | 2282 | 7101 | 1357 | 3414
Coa8 (GeneID 31148) | DRSC17959 | 18929 | – | 13984 | –
cyp33 (GeneID 36984) | DRSC07600 | 16730 | – | 4250 | –
CG42365 (GeneID 37469) | DRSC04266 | 1452 | 6449 | 649 | 2576
Ltn1 (GeneID 40127) | DRSC11056 | 2741 | – | 1386 | –
Ltn1 (GeneID 40127) | DRSC11058 | 15955 | – | 6032 | –
CG33090 (GeneID 34835) | DRSC01908 | 6067 | – | 982 | –
Mybbp1A (GeneID 31010) | DRSC18788 | 1171 | 6234 | 889 | 1876
CG17292 (GeneID 34152) | DRSC02594 | 11563 | – | 5494 | –
Imp (GeneID 32009) | DRSC18857 | 3948 | – | 1334 | –
Imp (GeneID 32009) | DRSC18861 | 5970 | – | 1988 | –
Imp (GeneID 32009) | DRSC20255 | 3060 | 5045 | 1149 | 2260
Imp (GeneID 32009) | DRSC21907 | 5.31e5 | 5.02e5 | 1.11e5 | 1.14e5
nAChRalpha3 (GeneID 31767) | DRSC18800 | 19365 | – | 9637 | –
Myd88 (GeneID 35956) | DRSC06815 | 13516 | – | 2405 | –
CG42824 (GeneID 10178873) | DRSC13230 | 4632 | – | 1763 | –
Cals (GeneID 43824) | DRSC17196 | 3689 | 11608 | 1521 | 3540
Cals (GeneID 43824) | DRSC21661 | 3.08e5 | 3.61e5 | 1.46e5 | 1.69e5

As entered above.
Result of CG43373 (GeneID 39835) [DRSC09885] under “firefly reporter light, replicate 1”: 8516
For “firefly reporter light, replicate 1”, Usp30 (GeneID 31519) [DRSC18265] shows 27840
For “Renilla control light, replicate 1”, Ltn1 (GeneID 40127) [DRSC11058] reads 6032
